From the supplement of paper PMC8728848
The list shows a part of the results.

Tests used:
Assay in all cases: glycan array binding signal (z-score within array); higher = stronger binding
Details in all cases: glycan notation: IUPAC condensed, linker removed
[1] = target: GlcNAc(b1-2)Gal(b1-3)GalNAc
Outline: (§1)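 Arrays were curated from the Consortium for Functional Glycomics database, 3228 in total, and kept only where the protein sequence was available. Binding is expressed as a within-array Z-score. This score was averaged across arrays of the same protein sequence at different concentrations or buffers and across linkers, and negative values can be read as non-binding.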

[2] = target: GlcNAc(b1-2)Man(a1-3)[GlcNAc(b1-2)Man(a1-6)]Man(b1-4)GlcNAc(b1-4)GlcNAc
Outline: as §1

[3] = target: GlcNAc(b1-2)Man(a1-3)[GlcNAc(b1-2)Man(a1-6)]Man(b1-4)GlcNAc(b1-4)[Fuc(a1-6)]GlcNAc
Outline: as §1

[4] = target: GlcNAc(b1-2)Man(a1-3)[GlcNAc(b1-4)][GlcNAc(b1-2)Man(a1-6)]Man(b1-4)GlcNAc(b1-4)GlcNAc
Outline: as §1

[5] = target: GlcNAc(b1-2)Man(a1-3)[GlcNAc(b1-4)][GlcNAc(b1-2)Man(a1-6)]Man(b1-4)GlcNAc(b1-4)[Fuc(a1-6)]GlcNAc
Outline: as §1

[6] = target: GlcNAc(b1-2)[GlcNAc(b1-4)]Man(a1-3)[GlcNAc(b1-2)Man(a1-6)]Man(b1-4)GlcNAc(b1-4)GlcNAc
Outline: as §1

[7] = target: GlcNAc(b1-2)[GlcNAc(b1-4)]Man(a1-3)[GlcNAc(b1-4)][GlcNAc(b1-2)Man(a1-6)]Man(b1-4)GlcNAc(b1-4)GlcNAc
Outline: as §1

[8] = target: GlcNAc(b1-2)[GlcNAc(b1-4)]Man(a1-3)[GlcNAc(b1-4)][GlcNAc(b1-2)[GlcNAc(b1-6)]Man(a1-6)]Man(b1-4)GlcNAc(b1-4)GlcNAc
Outline: as §1

[9] = target: GlcNAc(b1-2)[GlcNAc(b1-4)]Man(a1-3)[GlcNAc(b1-4)][GlcNAc(b1-2)[GlcNAc(b1-6)]Man(a1-6)]Man(b1-4)GlcNAc(b1-4)[Fuc(a1-6)]GlcNAc
Outline: as §1

[10] = target: GlcNAc(b1-2)[GlcNAc(b1-6)]Man(a1-6)[GlcNAc(b1-2)Man(a1-3)]Man(b1-4)GlcNAc(b1-4)GlcNAc
Outline: as §1

[11] = target: GlcNAc(b1-2)[GlcNAc(b1-6)]Man(a1-6)[GlcNAc(b1-2)Man(a1-3)]Man(b1-4)GlcNAc(b1-4)[Fuc(a1-6)]GlcNAc
Outline: as §1

[12] = target: GlcNAc(b1-2)[GlcNAc(b1-6)]Man(a1-6)[GlcNAc(b1-4)][GlcNAc(b1-2)Man(a1-3)]Man(b1-4)GlcNAc(b1-4)GlcNAc
Outline: as §1

[13] = target: GlcNAc(b1-3)Fuc
Outline: as §1

[14] = target: GlcNAc(b1-3)Gal
Outline: as §1

[15] = target: GlcNAc(b1-3)Gal(b1-3)GalNAc
Outline: as §1

[16] = target: GlcNAc(b1-3)Gal(b1-4)Glc
Outline: as §1

[17] = target: GlcNAc(b1-3)Gal(b1-4)GlcNAc
Outline: as §1

[18] = target: GlcNAc(b1-3)Gal(b1-4)GlcNAc(b1-2)Man(a1-3)[GlcNAc(b1-3)Gal(b1-4)GlcNAc(b1-2)Man(a1-6)]Man(b1-4)GlcNAc(b1-4)GlcNAc
Outline: as §1

[19] = target: GlcNAc(b1-3)Gal(b1-4)GlcNAc(b1-2)Man(a1-3)[GlcNAc(b1-3)Gal(b1-4)GlcNAc(b1-2)Man(a1-6)]Man(b1-4)GlcNAc(b1-4)[Fuc(a1-6)]GlcNAc
Outline: as §1

[20] = target: GlcNAc(b1-3)Gal(b1-4)GlcNAc(b1-2)[GlcNAc(b1-3)Gal(b1-4)GlcNAc(b1-6)]Man(a1-6)[GlcNAc(b1-3)Gal(b1-4)GlcNAc(b1-2)Man(a1-3)]Man(b1-4)GlcNAc(b1-4)GlcNAc
Outline: as §1

[21] = target: GlcNAc(b1-3)Gal(b1-4)GlcNAc(b1-3)Gal(b1-4)GlcNAc
Outline: as §1

[22] = target: GlcNAc(b1-3)Gal(b1-4)GlcNAc(b1-3)Gal(b1-4)GlcNAc(b1-2)Man(a1-3)[GlcNAc(b1-3)Gal(b1-4)GlcNAc(b1-3)Gal(b1-4)GlcNAc(b1-2)Man(a1-6)]Man(b1-4)GlcNAc(b1-4)GlcNAc
Outline: as §1

[23] = target: GlcNAc(b1-3)Gal(b1-4)GlcNAc(b1-3)Gal(b1-4)GlcNAc(b1-2)Man(a1-3)[GlcNAc(b1-3)Gal(b1-4)GlcNAc(b1-3)Gal(b1-4)GlcNAc(b1-2)Man(a1-6)]Man(b1-4)GlcNAc(b1-4)[Fuc(a1-6)]GlcNAc
Outline: as §1

[24] = target: GlcNAc(b1-3)Gal(b1-4)GlcNAc(b1-3)Gal(b1-4)GlcNAc(b1-2)[GlcNAc(b1-3)Gal(b1-4)GlcNAc(b1-3)Gal(b1-4)GlcNAc(b1-6)]Man(a1-6)[GlcNAc(b1-3)Gal(b1-4)GlcNAc(b1-3)Gal(b1-4)GlcNAc(b1-2)Man(a1-3)]Man(b1-4)GlcNAc(b1-4)[Fuc(a1-6)]GlcNAc
Outline: as §1

[25] = target: GlcNAc(b1-3)Gal(b1-4)GlcNAc(b1-3)Gal(b1-4)GlcNAc(b1-3)Gal(b1-4)GlcNAc(b1-2)Man(a1-3)[GlcNAc(b1-3)Gal(b1-4)GlcNAc(b1-3)Gal(b1-4)GlcNAc(b1-3)Gal(b1-4)GlcNAc(b1-2)Man(a1-6)]Man(b1-4)GlcNAc(b1-4)GlcNAc
Outline: as §1

[26] = target: GlcNAc(b1-3)Gal(b1-4)GlcNAc(b1-3)Gal(b1-4)GlcNAc(b1-3)Gal(b1-4)GlcNAc(b1-2)Man(a1-3)[GlcNAc(b1-3)Gal(b1-4)GlcNAc(b1-3)Gal(b1-4)GlcNAc(b1-3)Gal(b1-4)GlcNAc(b1-2)Man(a1-6)]Man(b1-4)GlcNAc(b1-4)[Fuc(a1-6)]GlcNAc
Outline: as §1

[27] = target: GlcNAc(b1-3)Gal(b1-4)GlcNAc(b1-3)Gal(b1-4)GlcNAc(b1-3)Gal(b1-4)GlcNAc(b1-2)[GlcNAc(b1-3)Gal(b1-4)GlcNAc(b1-3)Gal(b1-4)GlcNAc(b1-3)Gal(b1-4)GlcNAc(b1-6)]Man(a1-6)[GlcNAc(b1-3)Gal(b1-4)GlcNAc(b1-3)Gal(b1-4)GlcNAc(b1-3)Gal(b1-4)GlcNAc(b1-2)Man(a1-3)]Man(b1-4)GlcNAc(b1-4)[Fuc(a1-6)]GlcNAc
Outline: as §1

[28] = target: GlcNAc(b1-3)Gal(b1-4)GlcNAc(b1-3)Gal(b1-4)GlcNAc(b1-3)Gal(b1-4)GlcNAc(b1-3)Gal(b1-4)GlcNAc(b1-2)Man(a1-3)[GlcNAc(b1-3)Gal(b1-4)GlcNAc(b1-3)Gal(b1-4)GlcNAc(b1-3)Gal(b1-4)GlcNAc(b1-3)Gal(b1-4)GlcNAc(b1-2)Man(a1-6)]Man(b1-4)GlcNAc(b1-4)GlcNAc
Outline: as §1

[29] = target: GlcNAc(b1-3)Gal(b1-4)GlcNAc(b1-3)Gal(b1-4)GlcNAc(b1-3)Gal(b1-4)GlcNAc(b1-3)Gal(b1-4)GlcNAc(b1-2)Man(a1-3)[GlcNAc(b1-3)Gal(b1-4)GlcNAc(b1-3)Gal(b1-4)GlcNAc(b1-3)Gal(b1-4)GlcNAc(b1-3)Gal(b1-4)GlcNAc(b1-2)Man(a1-6)]Man(b1-4)GlcNAc(b1-4)[Fuc(a1-6)]GlcNAc
Outline: as §1

[30] = target: GlcNAc(b1-3)Gal(b1-4)GlcNAc(b1-3)Gal(b1-4)GlcNAc(b1-3)Gal(b1-4)GlcNAc(b1-3)Gal(b1-4)GlcNAc(b1-2)[GlcNAc(b1-3)Gal(b1-4)GlcNAc(b1-3)Gal(b1-4)GlcNAc(b1-3)Gal(b1-4)GlcNAc(b1-3)Gal(b1-4)GlcNAc(b1-6)]Man(a1-6)[GlcNAc(b1-3)Gal(b1-4)GlcNAc(b1-3)Gal(b1-4)GlcNAc(b1-3)Gal(b1-4)GlcNAc(b1-3)Gal(b1-4)GlcNAc(b1-2)Man(a1-3)]Man(b1-4)GlcNAc(b1-4)[Fuc(a1-6)]GlcNAc
Outline: as §1

[31] = target: GlcNAc(b1-3)Gal(b1-4)GlcNAc(b1-3)Gal(b1-4)GlcNAc(b1-3)GalNAc
Outline: as §1

[32] = target: GlcNAc(b1-3)Gal(b1-4)GlcNAc(b1-3)GalNAc
Outline: as §1

[33] = target: GlcNAc(b1-3)Gal(b1-4)GlcNAc(b1-3)[GlcNAc(b1-3)Gal(b1-4)GlcNAc(b1-3)]GalNAc
Outline: as §1

[34] = target: GlcNAc(b1-3)Gal(b1-4)GlcNAc(b1-6)[Gal(b1-3)]GalNAc
Outline: as §1

[35] = target: GlcNAc(b1-3)Gal(b1-4)GlcNAc(b1-6)[GlcNAc(b1-3)Gal(b1-3)]GalNAc
Outline: as §1

[36] = target: GlcNAc(b1-3)Gal(b1-4)GlcNAc(b1-6)[GlcNAc(b1-3)]Gal(b1-4)GlcNAc
Outline: as §1

[37] = target: GlcNAc(b1-3)GalNAc
Outline: as §1

[38] = target: GlcNAc(b1-3)Man
Outline: as §1

[39] = target: GlcNAc(b1-3)[GlcNAc(b1-4)][GlcNAc(b1-6)]GlcNAc
Outline: as §1

[40] = target: GlcNAc(b1-3)[GlcNAc(b1-6)]Gal(b1-4)GlcNAc
Outline: as §1

[41] = target: GlcNAc(b1-3)[GlcNAc(b1-6)]GalNAc
Outline: as §1

[42] = target: GlcNAc(b1-4)Gal(b1-4)GlcNAc
Outline: as §1

[43] = target: GlcNAc(b1-4)GlcNAc
Outline: as §1

[44] = target: GlcNAc(b1-4)GlcNAc(b1-4)GlcNAc
Outline: as §1

[45] = target: GlcNAc(b1-4)GlcNAc(b1-4)GlcNAc(b1-4)GlcNAc(b1-4)GlcNAc
Outline: as §1

B1: Pwp6 (Candida glabrata) (protein)
chain: MGSSHHHHHHSSGLVPRGSHMASANLPKLTNICQIPDNVKKTSGFKGEIRRIGLFPPGGDYTYLLKFPSTGSTASDTISLTTKPQLSTSGWFPSLFGHTYFIKADLLVYMVAYFVPTETGEYTFKLVNSDDAAVMYVGNPSAFPCGSIDTWPEPRKEDINVCDKISASTKLYMEKGLAYPVRLVWYNGGGDGQFNAQFIDPSGTTHTDWNGYVWQYDACTDCDYK
[1]
  glycan array binding signal (z-score): -0.927
[2]
  glycan array binding signal (z-score): 0.052
[3]
  glycan array binding signal (z-score): -0.408
[4]
  glycan array binding signal (z-score): 0
[5]
  glycan array binding signal (z-score): -0.5
[6]
  glycan array binding signal (z-score): -0.06
[7]
  glycan array binding signal (z-score): -0.458
[8]
  glycan array binding signal (z-score): -0.34
[9]
  glycan array binding signal (z-score): -0.356
[10]
  glycan array binding signal (z-score): 0.028
[11]
  glycan array binding signal (z-score): 0.023
[12]
  glycan array binding signal (z-score): -0.439
[13]
  glycan array binding signal (z-score): -0.673
[14]
  glycan array binding signal (z-score): -0.618
[15]
  glycan array binding signal (z-score): 0.058
[16]
  glycan array binding signal (z-score): -0.721
[17]
  glycan array binding signal (z-score): -0.696
[18]
  glycan array binding signal (z-score): 2.27
[19]
  glycan array binding signal (z-score): 0.785
[20]
  glycan array binding signal (z-score): 2.94
[21]
  glycan array binding signal (z-score): -0.261
[22]
  glycan array binding signal (z-score): 3.63
[23]
  glycan array binding signal (z-score): 1.15
[24]
  glycan array binding signal (z-score): 3.3
[25]
  glycan array binding signal (z-score): 1.43
[26]
  glycan array binding signal (z-score): 3.79
[27]
  glycan array binding signal (z-score): 3.71
[28]
  glycan array binding signal (z-score): 2.69
[29]
  glycan array binding signal (z-score): 1.85
[30]
  glycan array binding signal (z-score): 2.5
[31]
  glycan array binding signal (z-score): -0.218
[32]
  glycan array binding signal (z-score): 1.84
[33]
  glycan array binding signal (z-score): 0.485
[34]
  glycan array binding signal (z-score): 0.312
[35]
  glycan array binding signal (z-score): 0.366
[36]
  glycan array binding signal (z-score): 1.97
[37]
  glycan array binding signal (z-score): -0.863
[38]
  glycan array binding signal (z-score): 0.254
[39]
  glycan array binding signal (z-score): -0.466
[40]
  glycan array binding signal (z-score): -0.62
[41]
  glycan array binding signal (z-score): -0.362
[42]
  glycan array binding signal (z-score): -0.713
[43]
  glycan array binding signal (z-score): 0.223
[44]
  glycan array binding signal (z-score): -0.73
[45]
  glycan array binding signal (z-score): 0.227
